# Data as given in the supplement of paper PMC5949888.
# Most values lie at the floor of the assay. Slopes are relative: functional sequences can read slightly below zero.
# Test system: Saccharomyces cerevisiae PS128 hsf1 delta, HSF1(1-493) fusion
# Experiment: growth estimate (transactivation domain function in HSF1 fusion, heat-shock survival) (a.u. (slope of normalised read count over time)); higher = stronger growth at 37°C, i.e. more transactivation activity
# Settings: library: random library
row,Substance,growth estimate
1,TERRSDLCPRVTT,< -0.25
2,TERVKFEVEA,< -0.25
3,TESTGTDGRTSDRGAPQLAQ,< -0.25
4,TETRHLTEMSRSNHLMRSP,< -0.25
5,TETRLGANLFG,< -0.25
6,TEVGSRPLVGFTAHRSVSTV,< -0.25
7,TEVMEKGALYVSDRRRERRS,< -0.25
8,TEWNHPAGRPRRSLVACLQE,< -0.25
9,TFAKSGVNRAN,< -0.25
10,TFALLNGIQQGAWVHLYLCL,< -0.25
11,TFESVSYREVELRSVNACNA,< -0.25
12,TFFLVGDKELQWRRYCVVIG,< -0.25
13,TFFNLLTKCPVEIKRRGAPN,< -0.25
14,TFGAIPQIPRLTLQGSEKAR,-0.248
15,TFGCMKAKYYHYQA,< -0.25
16,TFHPLLGQSRDVTSNVMLAY,< -0.25
17,TFIHDQLRHRLRYVK,< -0.25
18,TFPASSQHTRC,< -0.25
19,TFPILYERSRWPR,< -0.25
20,TFR,-0.248
21,TFRTSRVLYPENDS,< -0.25
22,TFRW,< -0.25
23,TFSGRSLWGMDDLSTGVTPR,< -0.25
24,TFVEAHALWIL,< -0.25
25,TFVFAVRAPTTNMLRDRATE,< -0.25

row,Substance,growth estimate
1,TFVGKELT,-0.231
2,TGAGFNRSRGGSSWDLVEAR,< -0.25
3,TGAGTYGMFTSSTFVRASPH,< -0.25
4,TGARNYRQGNMNGRGREFAL,< -0.25
5,TGAVCHPIVQPWFFS,< -0.25
6,TGAVVGIRSWLNGPPEGVGC,< -0.25
7,TGCDNSDRRVLILRAPYYEI,< -0.25
8,TGCF,< -0.25
9,TGDVLQARDVSGRS,< -0.25
10,TGEEATDRICVCPSLTGMDF,< -0.25
11,TGEGCDSHIPDRDPRDRFLT,-0.203
12,TGEILELIEYE,< -0.25
13,TGELGGQVVLWRGGSPTAIY,< -0.25
14,TGEPNC,< -0.25
15,TGFEDPRSCRATHRGCREAN,< -0.25
16,TGGAEIGPAMNVCVCVPVGS,< -0.25
17,TGGGRLYDLLFLLPTYLSNQ,< -0.25
18,TGGNFGRKPDGLSPRSNDIP,-0.245
19,TGGYRRDRHPSGELDIHRPK,< -0.25
20,TGIGERAGRPFRTQLCDMQI,< -0.25
21,TGIHL,< -0.25
22,TGKCGASRSRWSGGAYSFSN,< -0.25
23,TGKGVEVGFEINCLKYVPAS,< -0.25
24,TGKQRCGGVRHKSRKVVHHL,< -0.25
25,TGKRRVTLP,< -0.25

row,Substance,growth estimate
1,TGKYSRKISLPGVFGRPRMV,< -0.25
2,TGL,< -0.25
3,TGLARRL,< -0.25
4,TGLILWLIYILWCASYLRRL,< -0.25
5,TGLLCVIHAMIVLLVVSGPP,< -0.25
6,TGLLSAQRIDLTAS,< -0.25
7,TGLRLQGPVRCR,< -0.25
8,TGLRQPAFSTCLFGAYPTFL,-0.166
9,TGLS,-0.243
10,TGNCRRFRVAVNL,< -0.25
11,TGNRPASH,< -0.25
12,TGPLVAVGNELILILAIV,< -0.25
13,TGPNIQAVL,< -0.25
14,TGPPCSRIRTH,< -0.25
15,TGPPYGPVLGLLILPAPLKV,< -0.25
16,TGPTKQARSVA,< -0.25
17,TGQDALGGSPPYFRHLARRV,< -0.25
18,TGQGGLLSDERQLNEDT,< -0.25
19,TGQLRPVQN,< -0.25
20,TGRDCTT,< -0.25
21,TGRHSYSSFGVNMARCGCPD,< -0.25
22,TGRRGYTI,< -0.25
23,TGRSFARDVTVGRFTYVAVR,< -0.25
24,TGSEPGPV,< -0.25
25,TGSH,< -0.253

row,Substance,growth estimate
1,TGSMWPERPMVSRVET,< -0.25
2,TGTGFY,< -0.25
3,TGVGPGFRWGSIVCCGPIVT,< -0.25
4,TGVR,< -0.25
5,TGVRGYEPYDK,< -0.25
6,TGY,< -0.25
7,THDG,< -0.25
8,THDGHRVFVASIRRRRHAPH,< -0.25
9,THFQRGTRLPKAGEFWIPGY,< -0.25
10,THGTMFMG,< -0.25
11,THGWNLPRLRPYWLVSRIKR,< -0.25
12,THIIIPSLRLCRRPS,< -0.25
13,THILIGFTLPDQRVY,< -0.25
14,THIWGLVRSTNPTISTGSEG,< -0.25
15,THKSSR,< -0.25
16,THLDF,< -0.25
17,THLVLFLRLSPGRVWVTPCH,< -0.25
18,THMSQALVQAPTDRYAFNAG,< -0.25
19,THQILTYDS,< -0.25
20,THRIVGLEII,< -0.25
21,THRTHKGGKPTTFCCDGSAL,< -0.25
22,THVRGPSA,< -0.25
23,THYHLPPLVVKYLGTSCQKI,< -0.25
24,TIANDRCECT,< -0.25
25,TIARDYEMDLHCIVSRFRPH,< -0.25

# Quoted at random: five entries already listed.
row,Substance,growth estimate
25,TIARDYEMDLHCIVSRFRPH,< -0.25
1,TGSMWPERPMVSRVET,< -0.25
15,THKSSR,< -0.25
7,THDG,< -0.25
11,THGWNLPRLRPYWLVSRIKR,< -0.25

# Some values from the list.
# THGTMFMG – growth estimate: < -0.25
# TGVRGYEPYDK – growth estimate: < -0.25
# THMSQALVQAPTDRYAFNAG – growth estimate: < -0.25

# Next results follow:

row,Substance,growth estimate
1,TIASGRYNGSGCWVC,< -0.25
2,TIASVRD,< -0.25
3,TIDIKS,< -0.25
4,TIEFSVKYTCLPPHSVVVSC,< -0.25
5,TIFQMLRNLKFVLVEESESC,< -0.25
6,TIGLAGLMHMVEEGHISWKG,< -0.25
7,TIGPEC,< -0.25
8,TIGVGSAGYRNVEDYH,< -0.25
9,TILGQILSRRTRCHGAIGVS,< -0.25
10,TILGVEQWTCSLAARVLIE,< -0.25
11,TILVNQSVIR,< -0.25
12,TILVTVDDSHGVCGIWVTAG,< -0.25
13,TILYDRFVS,< -0.25
14,TINTVHGLYGFAPR,< -0.25
15,TIRFAPSSGTYYLFNRINGT,< -0.25
16,TIRLS,< -0.25
17,TIRSAYVRDIFITHRGGITS,< -0.25
18,TIRVTINL,< -0.25
19,TISAPLRLRSAMRG,< -0.25
20,TITTTLCTMMSGSYSRSTRI,< -0.25
21,TITWTPVKVSSLGTALDFIG,< -0.25
22,TIV,-0.248
23,TIVDFSLTLYGFTPITDSLG,< -0.25
24,TIW,< -0.25
25,TIYRHSNLPSDEGRTCVLQG,< -0.25

# A portion taken from the entries so far:
row,Substance,growth estimate
11,TILVNQSVIR,< -0.25
12,TILVTVDDSHGVCGIWVTAG,< -0.25

# The listing continues:

row,Substance,growth estimate
1,TIYVSPPS,< -0.25
2,TKALMNRRMLI,< -0.25
3,TKCRH,< -0.25
4,TKCRSTAALQWFKGEYVPGH,< -0.25
5,TKDPGMNLSVRSARCRFNPL,< -0.25
6,TKEWCLWQQKRGFSDCYTPR,< -0.25
7,TKHGLRAEYVTRGT,< -0.25
8,TKIGTSVSDNCCEKISRSSK,< -0.25
9,TKISFNLWP,< -0.25
10,TKISL,< -0.25
11,TKLYPNPPYMRRSIGLAVPG,< -0.25
12,TKPGYRWGSSGGREASSGHY,< -0.25
13,TKPVVLVM,< -0.25
14,TKQHLNL,< -0.25
15,TKQQQQMREPDSISSSN,< -0.25
16,TKRGYAFVRQS,< -0.25
17,TKRSTITRAAGDAVWRL,< -0.25
18,TKSA,< -0.25
19,TKSASDRTAYEDTITALLQL,< -0.25
20,TKSLSLTLV,< -0.25
21,TKSPRSGIFCKQPQSLSWNS,< -0.25
